For the test, the target named is Arabidopsis ETHYLENE RESPONSE FACTOR 96 (Arabidopsis thaliana) (UniProt Q9LSX0). Briefly: SEC + other: dynamic light scattering.

Chains of the proteins cited; added tags and fusions are not shown.
UniProt Q9LSX0, whole entry: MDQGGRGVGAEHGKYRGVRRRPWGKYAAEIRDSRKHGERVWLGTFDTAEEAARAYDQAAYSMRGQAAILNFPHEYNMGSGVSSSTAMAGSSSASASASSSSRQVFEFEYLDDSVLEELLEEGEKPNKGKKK

Results are given in words; binding and its absence hold for the method and conditions named.

Turning to “Arabidopsis ETHYLENE RESPONSE FACTOR 96 (from UniProt Q9LSX0 1-131)”, the binding entry is on record as “no binding (tested: 1 mg/mL (DLS))”.
